Laboratory results taken from paper PMC8262361.
Read-outs that look alike come from different tables or passages of the source. No constants are given. Whether binding was seen depends on the method and setting. In cells and extracts the contact can be indirect. A result given as binding can be weak or reduced; the word gives no strength.

Chains of the proteins cited; added tags and fusions are not shown. Lines headed by an entry give the natural chain unless they say otherwise; changes in a name come on top.
UniProt P16070: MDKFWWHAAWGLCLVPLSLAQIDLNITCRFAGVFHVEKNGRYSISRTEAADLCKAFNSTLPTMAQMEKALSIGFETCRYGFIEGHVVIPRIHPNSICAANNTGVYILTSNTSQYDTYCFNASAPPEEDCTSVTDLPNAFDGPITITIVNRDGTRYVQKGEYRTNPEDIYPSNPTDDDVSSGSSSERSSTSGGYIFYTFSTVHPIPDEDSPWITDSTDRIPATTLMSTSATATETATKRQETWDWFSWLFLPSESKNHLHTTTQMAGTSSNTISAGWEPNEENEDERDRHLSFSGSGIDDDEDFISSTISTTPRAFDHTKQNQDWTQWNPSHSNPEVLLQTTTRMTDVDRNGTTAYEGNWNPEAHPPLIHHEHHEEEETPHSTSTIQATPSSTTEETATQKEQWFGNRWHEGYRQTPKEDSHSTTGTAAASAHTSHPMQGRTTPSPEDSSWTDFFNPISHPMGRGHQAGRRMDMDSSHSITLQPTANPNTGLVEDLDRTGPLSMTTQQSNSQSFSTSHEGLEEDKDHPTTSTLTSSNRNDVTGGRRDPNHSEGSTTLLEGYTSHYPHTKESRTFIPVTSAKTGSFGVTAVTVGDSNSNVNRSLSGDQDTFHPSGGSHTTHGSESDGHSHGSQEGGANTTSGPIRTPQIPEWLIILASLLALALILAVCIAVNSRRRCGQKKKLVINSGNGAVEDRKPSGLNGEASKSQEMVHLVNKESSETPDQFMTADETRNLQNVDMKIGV
UniProt P51532: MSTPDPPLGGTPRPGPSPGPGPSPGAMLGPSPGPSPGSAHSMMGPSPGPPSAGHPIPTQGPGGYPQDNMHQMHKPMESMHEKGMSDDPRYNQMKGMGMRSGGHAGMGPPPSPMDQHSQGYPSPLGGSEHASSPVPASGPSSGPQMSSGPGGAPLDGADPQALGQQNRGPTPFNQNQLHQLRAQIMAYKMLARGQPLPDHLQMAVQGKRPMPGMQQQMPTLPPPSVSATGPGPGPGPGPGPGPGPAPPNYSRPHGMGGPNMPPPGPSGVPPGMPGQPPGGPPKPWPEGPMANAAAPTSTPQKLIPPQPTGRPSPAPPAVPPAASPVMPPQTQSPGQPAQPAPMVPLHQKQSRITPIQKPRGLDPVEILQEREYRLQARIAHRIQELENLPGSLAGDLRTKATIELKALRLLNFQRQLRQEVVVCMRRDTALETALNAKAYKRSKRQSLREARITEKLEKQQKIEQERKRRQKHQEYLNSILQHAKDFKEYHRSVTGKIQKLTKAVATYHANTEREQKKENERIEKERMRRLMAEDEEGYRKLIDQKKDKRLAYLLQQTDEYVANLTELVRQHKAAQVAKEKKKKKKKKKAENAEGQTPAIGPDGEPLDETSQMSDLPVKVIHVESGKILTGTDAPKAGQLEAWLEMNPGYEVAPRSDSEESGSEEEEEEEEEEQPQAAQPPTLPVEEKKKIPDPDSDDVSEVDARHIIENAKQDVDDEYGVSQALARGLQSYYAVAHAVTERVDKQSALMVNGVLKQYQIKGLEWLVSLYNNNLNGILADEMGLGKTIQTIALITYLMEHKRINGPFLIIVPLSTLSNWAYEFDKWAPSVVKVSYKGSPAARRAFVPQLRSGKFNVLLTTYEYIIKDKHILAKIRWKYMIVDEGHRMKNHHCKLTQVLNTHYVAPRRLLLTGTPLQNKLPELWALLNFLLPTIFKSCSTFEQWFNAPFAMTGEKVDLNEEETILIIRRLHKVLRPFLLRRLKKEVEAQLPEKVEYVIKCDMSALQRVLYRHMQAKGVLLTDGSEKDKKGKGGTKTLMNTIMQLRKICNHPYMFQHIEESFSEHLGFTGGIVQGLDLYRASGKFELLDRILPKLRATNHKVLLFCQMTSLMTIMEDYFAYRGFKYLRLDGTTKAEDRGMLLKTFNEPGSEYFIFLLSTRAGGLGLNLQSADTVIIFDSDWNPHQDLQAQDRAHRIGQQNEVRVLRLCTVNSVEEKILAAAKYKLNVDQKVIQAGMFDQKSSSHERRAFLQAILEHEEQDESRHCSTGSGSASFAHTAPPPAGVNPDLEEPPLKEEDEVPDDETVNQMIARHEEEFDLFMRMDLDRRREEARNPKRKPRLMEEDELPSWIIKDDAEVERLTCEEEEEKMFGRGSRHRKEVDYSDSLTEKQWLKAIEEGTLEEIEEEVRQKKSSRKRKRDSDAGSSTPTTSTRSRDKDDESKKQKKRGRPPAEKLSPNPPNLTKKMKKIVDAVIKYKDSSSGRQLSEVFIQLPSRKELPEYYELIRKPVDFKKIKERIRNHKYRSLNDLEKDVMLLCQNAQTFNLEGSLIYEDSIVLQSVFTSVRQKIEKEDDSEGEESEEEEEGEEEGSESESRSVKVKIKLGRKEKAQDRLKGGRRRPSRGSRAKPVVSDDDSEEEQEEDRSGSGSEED

What was measured:
[1] = target: CD44 (human (endogenous in IPF MPCs)) (UniProt P16070); test: co-IP; nuclear fractions (NE-PER) of CD44hi IPF MPCs treated with IL-8 or vehicle; precleared with protein A/G beads, nuclear CD44 immunoprecipitated 2 hours at 4°C; Western blot for the partner; isotype antibody as control
[2] = target: CD44 (human (endogenous in IPF MPCs)) (UniProt P16070); test: as above; remark: listed apart in the source

| Molecule | binding [1] | binding [2] |
| --- | --- | --- |
| Brahma-related gene 1 (Brg1) (from UniProt P51532 1-1647) | binds |  |
| zinc finger E-box binding homeobox 1 (Zeb1) (protein, UniProt P37275 1-1124) MADGPRCKRRKQANPRRNNVTNYNTVVETNSDSDDEDKLHIVEEESVTDAADCEGVPEDDLPTDQTVLPGRSSEREGNAKNCWEDDRKEGQEILGPEAQADEAGCTVKDDECESDAENEQNHDPNVEEFLQQQDTAVIFPEAPEEDQRQGTPEASGHDENGTPDAFSQLLTCPYCDRGYKRFTSLKEHIKYRHEKNEDNFSCSLCSYTFAYRTQLERHMTSHKSGRDQRHVTQSGCNRKFKCTECGKAFKYKHHLKEHLRIHSGEKPYECPNCKKRFSHSGSYSSHISSKKCISLIPVNGRPRTGLKTSQCSSPSLSASPGSPTRPQIRQKIENKPLQEQLSVNQIKTEPVDYEFKPIVVASGINCSTPLQNGVFTGGGPLQATSSPQGMVQAVVLPTVGLVSPISINLSDIQNVLKVAVDGNVIRQVLENNQANLASKEQETINASPIQQGGHSVISAISLPLVDQDGTTKIIINYSLEQPSQLQVVPQNLKKENPVATNSCKSEKLPEDLTVKSEKDKSFEGGVNDSTCLLCDDCPGDINALPELKHYDLKQPTQPPPLPAAEAEKPESSVSSATGDGNLSPSQPPLKNLLSLLKAYYALNAQPSAEELSKIADSVNLPLDVVKKWFEKMQAGQISVQSSEPSSPEPGKVNIPAKNNDQPQSANANEPQDSTVNLQSPLKMTNSPVLPVGSTTNGSRSSTPSPSPLNLSSSRNTQGYLYTAEGAQEEPQVEPLDLSLPKQQGELLERSTITSVYQNSVYSVQEEPLNLSCAKKEPQKDSCVTDSEPVVNVIPPSANPINIAIPTVTAQLPTIVAIADQNSVPCLRALAANKQTILIPQVAYTYSTTVSPAVQEPPLKVIQPNGNQDERQDTSSEGVSNVEDQNDSDSTPPKKKMRKTENGMYACDLCDKIFQKSSSLLRHKYEHTGKRPHECGICKKAFKHKHHLIEHMRLHSGEKPYQCDKCGKRFSHSGSYSQHMNHRYSYCKREAEERDSTEQEEAGPEILSNEHVGARASPSQGDSDERESLTREEDEDSEKEEEEEDKEMEELQEEKECEKPQGDEEEEEEEEEVEEEEVEEAENEGEEAKTEGLMKDDRAESQASSLGQKVGESSEQVSEEKTNEA |  | binds |
